From paper PMC9239104, “Scaffolding Protein GspB/OutB Facilitates Assembly of the Dickeya dadantii Type 2 Secretion System by Anchoring the Outer Membrane Secretin Pore to the Inner Membrane and to the Peptidoglycan Cell Wall” (mBio, 2022) come the findings set out here.

The chains behind the UniProt entries cited, without tags or fusion partners. Where a name states a change or a piece, a line headed by the entry shows the natural chain unless it says otherwise. Residues count along the entry.
UniProt Q01565: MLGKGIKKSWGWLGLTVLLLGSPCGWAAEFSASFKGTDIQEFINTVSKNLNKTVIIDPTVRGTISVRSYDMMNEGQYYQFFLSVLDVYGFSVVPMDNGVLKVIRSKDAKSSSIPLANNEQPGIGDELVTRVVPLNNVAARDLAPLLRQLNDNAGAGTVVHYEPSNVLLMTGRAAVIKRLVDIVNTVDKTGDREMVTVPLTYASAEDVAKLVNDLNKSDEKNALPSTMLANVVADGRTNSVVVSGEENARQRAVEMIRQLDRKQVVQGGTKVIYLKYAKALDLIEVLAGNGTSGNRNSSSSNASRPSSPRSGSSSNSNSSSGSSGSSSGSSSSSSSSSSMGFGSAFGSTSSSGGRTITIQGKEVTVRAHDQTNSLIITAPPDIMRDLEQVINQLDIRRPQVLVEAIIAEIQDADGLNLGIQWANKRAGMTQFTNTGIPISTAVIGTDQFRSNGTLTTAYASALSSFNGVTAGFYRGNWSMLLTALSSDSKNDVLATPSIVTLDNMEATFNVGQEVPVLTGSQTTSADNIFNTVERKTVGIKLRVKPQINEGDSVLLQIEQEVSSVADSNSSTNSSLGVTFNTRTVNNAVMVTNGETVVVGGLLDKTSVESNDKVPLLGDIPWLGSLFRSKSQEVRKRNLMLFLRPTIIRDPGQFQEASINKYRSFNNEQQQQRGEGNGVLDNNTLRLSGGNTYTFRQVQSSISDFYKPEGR
Secretin OutD (GspD), full-length: residues 28-710 of Q01565

No constants are given. Whether binding was seen depends on the method and setting. Binding seen in cells or lysates may run through a third protein. Some results given as binding are weak or reduced against the parent protein; the word gives no strength. For part of these data: Where a sequence is shown, tags or fusion partners need not be part of it.

Assay [1] addresses T1, GST-tagged C-terminal portion of OutB, consisting of the HR and CTE (residues P112 to K220) (Dickeya dadantii) (UniProt Q01563).
T1 sequence: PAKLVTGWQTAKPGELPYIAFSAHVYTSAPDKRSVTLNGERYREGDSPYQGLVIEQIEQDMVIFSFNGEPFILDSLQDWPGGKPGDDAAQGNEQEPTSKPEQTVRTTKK
In words: pull-down; GST-OutB domains coexpressed with OutD N-terminal domains from the same plasmid in E. coli BL21(DE3); cell extract in TSE buffer (50 mM Tris-HCl pH 8.0, 100 mM NaCl, 1 mM EDTA, 1 mM PMSF) with 0.1% Triton X-100 on glutathione agarose, six washes; SDS-PAGE, Coomassie or anti-OutD blot.

The target of assay [2] is GST-tagged HR domain of OutB (residues P112 to G192) (Dickeya dadantii) (UniProt Q01563). The assay is described as above.
In assay [3] the target is Secretin OutD (GspD), full-length (Dickeya dadantii) (UniProt Q01565). In words: co-sedimentation; membranes of E. coli MC3/pREP4 carrying DBS-derived plasmids, French press, discontinuous 35%-to-65% sucrose gradient, 48,000 rpm 70 h; fractions immunoblotted. Background: A western blot detects proteins with antibodies after separation by electrophoresis.

For “OutD N0 domain (residues A1 to S85), pull-down construct (from UniProt Q01565 28-112) (domain or fragment)”, the binding result in assay [1] and in assay [2] was “binds” each time.

For “OutB (GspB), full-length (from UniProt Q01563 1-220)”, the binding entry in assay [3] was “binds”.
